Source: PubChem BioAssay AID216 (DTP/NCI, 2004)
The list shows only some results of the screen, not a fair sample: it gathers tests that were run many times, whatever their T/C, doses with no T/C, and many T/C values between a quarter and a half above the control. Other doses and runs of a compound stand elsewhere. T/C: endpoint of the treated group in % of that of the vehicle group. Some doses have a count of surviving animals in place of a T/C: the source holds a T/C of zero for them, seemingly a mark for toxic or unscored doses. Some survivor counts are full or nearly so, which does not show that the dose was tolerated: survival well below the control is almost never listed, so the zero probably covers shortened survival too. Counts of survivors are from the toxicity check (mostly the fifth day) where no day follows; animals may have died later. Schedule codes are those of the source, taken here to give the interval after Q, in days (D) or hours (H), and the number of doses after X. Some doses were run more than once; their values stand side by side, smallest first. Some schedules carry Z or #; the key to these is not given. For survival time, this PubChem deposit counts one and a half times the control or more as active, and values a quarter to a half above the control carry no call in these data; other NCI protocols may use other cut-offs. Some T/C values are followed by the survivors on the day toxicity was checked, most often the fifth; without a count, all were alive then.

System: BDF1 mice, P288 leukemia ip, survival T/C
Assay: NCI In Vivo Anticancer Drug Screen. Data for tumor model P288 Lymphocytic Leukemia (intraperitoneal) in B6D2F1 (BDF1) mice
Settings: T/C endpoint: survival time, mean or median, higher T/C = longer survival
Experimental: The antitumor activity of compounds was measured in mice bearing transplantable tumors. Survival or tumor size were measured and the results are expressed as the measurement made in the treated group (T) divided by the measurement made in the vehicle treated control group (C). The tumor model used in this assay is P288 Lymphocytic Leukemia (intraperitoneal) in B6D2F1 (BDF1) mice

[1] = dose: 50.0 mg/kg/injection, schedule: Q01DX Z (ip), vehicle: carboxymethylcellulose (CMC)
[2] = dose: 7.5 mg/kg/injection, schedule: Q01DX Z (ip), vehicle: carboxymethylcellulose (CMC)
[3] = dose: 15.0 mg/kg/injection, schedule: Q01DX Z (ip), vehicle: carboxymethylcellulose (CMC)
[4] = dose: 125.0 mg/kg/injection, schedule: Q01DX Z (ip), vehicle: carboxymethylcellulose (CMC)
[5] = dose: 1000.0 mg/kg/injection, schedule: Q01DX Z (ip), vehicle: carboxymethylcellulose (CMC)
[6] = dose: 25.0 mg/kg/injection, schedule: Q01DX Z (ip), vehicle: carboxymethylcellulose (CMC)
[7] = dose: 200.0 mg/kg/injection, schedule: Q01DX010 (ip), vehicle: saline

O=c1[nH]c(=O)n(C2CC(O)C(CO)O2)cc1F (stereo unspecified)
T/C (dose: 40.0 mg/kg/injection, schedule: Q01DX010 (ip), vehicle: saline): 131 % of control | T/C [1]: 134 % of control

C[C@H]1C(=O)O[C@@H]2CCN3CC=C(COC(=O)[C@](C)(O)[C@@]1(C)O)[C@H]23
survivor count (dose: 0.99 mg/kg/injection, schedule: Q01DX Z (ip), vehicle: carboxymethylcellulose (CMC)): 6 of 6 | survivor count (dose: 1.88 mg/kg/injection, schedule: Q01DX Z (ip), vehicle: carboxymethylcellulose (CMC)): 6 of 6 | survivor count (dose: 3.75 mg/kg/injection, schedule: Q01DX Z (ip), vehicle: carboxymethylcellulose (CMC)): 6 of 6 | T/C (dose: 6.25 mg/kg/injection, schedule: Q01DX010 (ip), vehicle: saline): 126 % of control | survivor count [2]: 6 of 6 | survivor count [3]: 6 of 6 | survivor count (dose: 30.0 mg/kg/injection, schedule: Q01DX Z (ip), vehicle: carboxymethylcellulose (CMC)): 6 of 6 | survivor count (dose: 60.0 mg/kg/injection, schedule: Q01DX Z (ip), vehicle: carboxymethylcellulose (CMC)): 6 of 6 | survivor count (dose: 120.0 mg/kg/injection, schedule: Q01DX Z (ip), vehicle: carboxymethylcellulose (CMC)): 4 of 6

c1ccc(CNc2ncnc3[nH]ncc23)cc1
survivor count (dose: 15.6 mg/kg/injection, schedule: Q01DX Z (ip), vehicle: carboxymethylcellulose (CMC)): 6 of 6 | survivor count (dose: 31.2 mg/kg/injection, schedule: Q01DX Z (ip), vehicle: carboxymethylcellulose (CMC)): 5 of 6 | T/C (dose: 32.0 mg/kg/injection, schedule: Q01DX010 (ip), vehicle: saline): 135 % of control | survivor count (dose: 62.5 mg/kg/injection, schedule: Q01DX Z (ip), vehicle: carboxymethylcellulose (CMC)): 0 of 6 | T/C (dose: 64.0 mg/kg/injection, schedule: Q01DX010 (ip), vehicle: saline): 125 and 135 % of control

O=CCC(O)C(O)C(O)CO (stereo unspecified)
T/C (dose: 31.0 mg/kg/injection, schedule: Q01DX Z (ip), vehicle: carboxymethylcellulose (CMC)): 126 % of control | survivor count (dose: 62.5 mg/kg/injection, schedule: Q01DX010 (ip), vehicle: saline): 6 of 6 | survivor count (dose: 125.0 mg/kg/injection, schedule: Q01DX010 (ip), vehicle: saline): 6 of 6 | survivor count [4]: 6 of 6 | survivor count (dose: 250.0 mg/kg/injection, schedule: Q01DX Z (ip), vehicle: carboxymethylcellulose (CMC)): 6 of 6 | survivor count (dose: 500.0 mg/kg/injection, schedule: Q01DX Z (ip), vehicle: carboxymethylcellulose (CMC)): 6 of 6 | survivor count [5]: 6 of 6

CSc1ncnc2c1ncn2C1OC(CO)C(O)C1O (stereo unspecified)
survivor count (dose: 6.25 mg/kg/injection, schedule: Q01DX Z (ip), vehicle: carboxymethylcellulose (CMC)): 6 of 6 | survivor count (dose: 12.5 mg/kg/injection, schedule: Q01DX Z (ip), vehicle: carboxymethylcellulose (CMC)): 4 of 6 | T/C [6]: 128 % of control | survivor count [6]: 6 of 6 | survivor count [1]: 2 of 6

CCN(CC)CCNc1ccc(C)c2sc3ccccc3c(=O)c12
survivor count (dose: 100.0 mg/kg/injection, schedule: Q01DX010 (ip), vehicle: saline): 6 of 6 | survivor count [7]: 5 of 6 and 6 of 6

CN(C)/N=N/c1nc[nH]c1C(N)=O
T/C [7]: 138 % of control | T/C (dose: 400.0 mg/kg/injection, schedule: Q01DX010 (ip), vehicle: saline): 127 % of control [5 of 6 alive]

C=CC(CN1CC1)OC(C)=O (stereo unspecified)
survivor count [2]: 3 of 6 | survivor count [3]: 3 of 6

Cn1c(N)nc2nc[nH]c2c1=S
survivor count (dose: 1.6 mg/kg/injection, schedule: Q01DX Z (ip), vehicle: carboxymethylcellulose (CMC)): 6 of 6 | survivor count (dose: 6.3 mg/kg/injection, schedule: Q01DX Z (ip), vehicle: carboxymethylcellulose (CMC)): 6 of 6

O[C@H](CN1CC1)[C@@H](O)CN1CC1
T/C (dose: 16.0 micrograms/kg/injection, schedule: Q01DX Z (ip), vehicle: carboxymethylcellulose (CMC)): 131 % of control | T/C (dose: 63.0 micrograms/kg/injection, schedule: Q01DX Z (ip), vehicle: carboxymethylcellulose (CMC)): 131 % of control | T/C (dose: 125.0 micrograms/kg/injection, schedule: Q01DX Z (ip), vehicle: carboxymethylcellulose (CMC)): 141 % of control | T/C (dose: 1000.0 micrograms/kg/injection, schedule: Q01DX Z (ip), vehicle: carboxymethylcellulose (CMC)): 130 % of control | survivor count (dose: 2000.0 micrograms/kg/injection, schedule: Q01DX Z (ip), vehicle: carboxymethylcellulose (CMC)): 6 of 6 | survivor count (dose: 4000.0 micrograms/kg/injection, schedule: Q01DX Z (ip), vehicle: carboxymethylcellulose (CMC)): 0 of 6

CN(C)c1ccc(Nc2c3ccccc3nc3ccccc23)cc1
T/C [6]: 126 % of control | T/C (dose: 36.0 mg/kg/injection, schedule: Q01DX010 (ip), vehicle: saline): 136 % of control | T/C (dose: 54.0 mg/kg/injection, schedule: Q01DX010 (ip), vehicle: saline): 142 % of control | T/C (dose: 120.0 mg/kg/injection, schedule: Q01DX010 (ip), vehicle: saline): 136 % of control

O=P1(N(CCCl)CCCl)NCCCO1 (stereo unspecified)
survivor count (dose: 11.3 mg/kg/injection, schedule: Q01DX010 (ip), vehicle: saline): 6 of 6 | T/C (dose: 90.0 mg/kg/injection, schedule: Q01DX010 (ip), vehicle: saline): 132 % of control | T/C (dose: 100.0 mg/kg/injection, schedule: Q01DX Z (ip), vehicle: saline): 132 % of control | survivor count (dose: 180.0 mg/kg/injection, schedule: Q01DX010 (ip), vehicle: saline): 6 of 6

Nc1nc(F)nc2c1ncn2C1OC(CO)C(O)C1O (stereo unspecified)
T/C (dose: 250.0 micrograms/kg/injection, schedule: Q01DX010 (ip), vehicle: saline): 133 % of control

[N-]=[N+]=CC(=O)NCC(=O)NN
survivor count (dose: 1000.0 mg/kg/injection, schedule: Q01DX Z (ip), vehicle: other): 2 of 6

O=C(Nc1ccc(NC2=NCCN2)cc1)c1ccc(C(=O)Nc2ccc(NC3=NCCN3)cc2)cc1
T/C (dose: 16.0 mg/kg/injection, schedule: Q01DX010 (ip), vehicle: saline): 131 % of control | T/C (dose: 16.0 mg/kg/injection, schedule: Q01DX Z (ip), vehicle: saline): 139 % of control

CCOC(=O)NP(=O)(N1CC1(C)C)N1CC1(C)C (stereo unspecified)
T/C [4]: 143 % of control | survivor count [5]: 0 of 6

CN(C)c1ccc(/C=C/c2ccnc3ccccc23)cc1
T/C (dose: 0.4 mg/kg/injection, schedule: Q01DX Z (ip), vehicle: water): 126 % of control | survivor count (dose: 5.0 mg/kg/injection, schedule: Q01DX010 (ip), vehicle: saline): 6 of 6 | survivor count (dose: 12.5 mg/kg/injection, schedule: Q01DX Z (ip), vehicle: water): 6 of 6 | survivor count (dose: 20.0 mg/kg/injection, schedule: Q01DX010 (ip), vehicle: saline): 6 of 6 | survivor count (dose: 25.0 mg/kg/injection, schedule: Q01DX Z (ip), vehicle: water): 6 of 6 | survivor count (dose: 50.0 mg/kg/injection, schedule: Q01DX Z (ip), vehicle: water): 6 of 6 | survivor count (dose: 100.0 mg/kg/injection, schedule: Q01DX Z (ip), vehicle: water): 4 of 6

CS(=O)(=O)OCCCl
survivor count [6]: 6 of 6 | survivor count [1]: 6 of 6 | survivor count (dose: 100.0 mg/kg/injection, schedule: Q01DX Z (ip), vehicle: carboxymethylcellulose (CMC)): 5 of 6
